Here are results for 18 molecules from publication PMC10163288.

The other results are listed elsewhere or left out.

The chains are these.
B1: il2ra_site2_3nfp_sap_36_mot_HHH_b1_07764_000000013_0001_24_39_H_._41bf9513afb4a9f800fdbd9786f8515b_0001_0001_0000100004_0000001_0_0001 (protein)
chain: SSSSDRSEEYLKAALALLEELVERGDEEFFERHLELVRLAAEDANDEEVRERLEELRELIKSSSS
B2: il2ra_site2_2erj_normal_mot_HHH_b2_01275_af2_000000073_0001_23_39_H_._HHH_b1_03892_af2_0001_0000200008_0000001_1 (protein)
chain: SSSSDEELRELYELAVRLLRLLFEGDEEKIKELLREVQELAEKLQSQAAERLVEEVEKKLSSSSS
B3: il2ra_site1_1z92_normal_mot_1581cc1c700002558836ca695aafbf97_0001_1_af2_000000099_0001_17_32_H_._HHH_b2_05050_0001_0000200017_0000001_0_af2pred_0001_af2pred (protein)
chain: SSSSDEEVERLVEELVEEFNLSEEEEKELRRIARSAEELGADPELVKKALEHFVEFLKRKGSSSS
B4: il2ra_site2_3nfp_normal_mot_HHH_b1_03818_000000217_0001_1_20_H_._HHH_b1_03372_af2_0001_0000500027_0000001_0 (protein)
chain: SSSSDEEKLRELEEEIEELIKEGDKYEVFQLVAELSELAARLQDEEAVKFVIEVYEWLKGSSSSS
B5: il2ra_site1_1z92_sap_18_mot_HHH_b1_00499_000000281_0001_1_17_H_._4428453eb85d3cbdb794fa6b82d21c19_0001_0001_0000300039_0000001_0_0001 (protein)
chain: SSSSDEEFEELRRIVEELRELLKERGDRKAEELVEFLLRSAERLKNPKHLEFAIQDAEARISSSS
B6: il2ra_site1_3nfp_normal_mot_HHH_b1_01231_af2_000000170_0001_1_16_H_._HHH_b2_07700_af2_0001_0000100001_0000001_0 (protein)
chain: SSSSDVREEVRRLLQEALRAAVEGDPEEARELAEEALELAEERNDPQLEKFARRVLRDIRGSSSS
B7: il2ra_site1_1z92_sap_8_mot_HHH_b1_00287_000000111_0001_42_57_H_._HHH_b1_06795_af2_0001_0000100011_0000001_1_0001_af2pred_0001_af2pred (protein)
chain: SSSSNHEVHKLFIEASRLLSKGNPEEAERLLEEALELAREEGDELAAKQIEHILEAIKKSSSSSS
B8: il2ra_site2_3nfp_normal_mot_HHH_b1_01086_af2_000000264_0001_39_53_H_._HHH_b2_00528_0001_0000100004_0000001_0_af2pred_0001_af2pred (protein)
chain: SSSSSDEEVRRLLEEAERALEEGDPELVRFLLLLALEAALQLRDEELEREVRHVAKELNRSSSSS
B9: il2ra_site1_2b5i_sap_10_mot_HHH_b1_00432_000000039_0001_1_18_H_._HHH_b1_03544_af2_0001_0000500028_0000001_0_0001 (protein)
chain: SSSDYEELTRAAVRIVWKLRWKFGLSAEQARELNRLAAELADEGVSPEEIEEELEKLAHELSSSS
B10: il2ra_site1_2b5i_normal_mot_HHH_b2_01648_000000060_0001_42_56_H_._HHH_b1_05011_0001_0000300022_0000001_0_af2pred_dldesign_0_af2pred (protein)
chain: SSSSSKFVDRVVAQAREEFEELLAEGDEEALKKLLEQLEELERLTKDPKVRAELERLKALLSSSS
B11: il2ra_site1_1z92_sap_10_mot_HHH_b2_07834_af2_000000183_0001_23_39_H_._HHH_b2_03932_0001_0000300026_0000001_0_0001_af2pred_0001_af2pred_swapped (protein)
chain: SLTEEDLREAVEKNDEEELRKFIELLLRDAGDPKYVKRLLKILVKRLGLPPEVLERLEELLEELT
B12: il2ra_site2_2erj_normal_mot_HHH_b1_03609_af2_000000077_0001_42_55_H_._HHH_b1_03248_0001_0000600011_0000001_0 (protein)
chain: SSSSSSEEEERVEELLEEAKEIPDPKEREEVLREASEIAFRLGDFRLWALVSEVFRELNQSSSSS
B13: il2ra_site2_2erj_sap_20_mot_HHH_b2_07568_000000046_0001_18_34_H_._HHH_b2_02074_0001_0000200022_0000001_0_0001 (protein)
chain: SSSSTDNVRASLEAAEEALERGSPEVARAYLELLLRDLKRSGDEEAIEEVQKILEEVERRSSSSS
B14: il2ra_site1_1z92_sap_10_mot_HHH_b1_02362_af2_000000131_0001_1_17_H_._HHH_b2_01219_0001_0000200021_0000001_0_0001_af2pred_0001_af2pred_1 (protein)
chain: EDHEAFQRDVEQLAKFAGVPSFEVEVRNNTVEVTLNGDDEAARNAQKALERLAKEAGIEVHVEVE
B15: il2ra_site2_2erj_sap_18_mot_HHH_b2_02734_000000067_0001_42_55_H_._HHH_b2_06464_af2_0001_0000300019_0000001_0_0001 (protein)
chain: SSSSDEFHRLYELAEEVIELLSRGNKEEAEKLLEELEEIARKLQSDNVHEIVENLERHLNSSSSS
B16: il2ra_site1_3nfp_normal_mot_HHH_b1_07078_000000231_0001_39_52_H_._ems_3hC_793_0001_0001_0000300013_0000001_0 (protein)
chain: SSDEELYKELNKLAWEAMRRADREALREVTEEAEELARKHNDPALKRLAEYIERLLEEAEKSSSS
B17: il2ra_site2_3nfp_sap_26_mot_7cf5847eaa050a71bc877a27954f5424_0001_1_af2_000000114_0001_17_30_H_._f45a65fa70d066dfb2bff9ecbb6071cf_0001_0001_0000600018_0000001_1 … (protein)
chain: SSSSSDEERLRELQEELRELLEEGDEEEAERVARELARLAFELGDEEAWAEALRILEELESSSSS
B18: il2ra_site1_1z92_normal_mot_HHH_b2_05172_af2_000000284_0001_1_18_H_._HHH_b2_08134_af2_0001_0000400053_0000001_0 (protein)
chain: SSSSDERSREQAEFVVRLAAEFGLDLEQIKILDEVARELEERGYSPEEIKEILEEVAEELGSSSS

The target in this assay is il2ra, P01589. Briefly: yeast display titration.
On to B1, for which the “apparent Kd” value was “inactive: no binding seen”.

Take B2: the “apparent Kd” value is “inactive: no binding seen”.

In the case of B3, the “apparent Kd” value is “inactive: no binding seen”. Regarding B4, the “apparent Kd” value was “inactive: no binding seen”.

Turning to B5, the “apparent Kd” value is “inactive: no binding seen”. B6: the “apparent Kd” value is “inactive: no binding seen”. As to B7, the “apparent Kd” value is “inactive: no binding seen”. On to B8, for which the “apparent Kd” value was “inactive: no binding seen”. Regarding B9, the “apparent Kd” value was “inactive: no binding seen”. With B10 the entry was “inactive: no binding seen”; with B11, “inactive: no binding seen”; with B12, “inactive: no binding seen”.

On to B13, for which the “apparent Kd” value is “inactive: no binding seen”. Consider B14, for which the “apparent Kd” value is “inactive: no binding seen”. With B15 the entry was “inactive: no binding seen”; with B16, “inactive: no binding seen”; with B17, “inactive: no binding seen”.

In the case of B18, the “apparent Kd” value was “inactive: no binding seen”.
